Values from PubChem BioAssay AID1259405 (NCATS, 2018)
Purpose: 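Silenced genes that increase secreted GFP made by CHO cells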 (primary screen). Cells: Chinese hamster CHO-K1 ovary cells with stable secreted eGFP expression. Knock-down reagent: single siRNA against mouse genes, 0.8 pmol siRNA per well (2 µl of 400 nM stock). Timing: 3 days. Read-out: 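Percent of the per-plate non-targeting control median for intracellular GFP per well by laser scanning cytometry and for cell viability by ATP luminescence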. Direction: GFP, % of control: higher = more GFP per well, higher productivity; viability (ATP), % of control: higher = more viable cells (more ATP). Active means: 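a knock-down is called active if GFP reaches 120% or more of non-targeting control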.
In all, the deposit lists about 50,000 reagents; shown is a part drawn at random. About 4,000 of them (8%) count as active. 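Mouse siRNA library applied to hamster cells; one well for each siRNA.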 Entries without a mark were called inactive. The numbers tell different reagents against one gene apart. Reagent sequences are not shown.

no.	target gene	siRNA no.	GFP, % of control	viability (ATP), % of control
1	Rgs10	1	91.5	94.3
2	Rgs10	2	88.3	76.4
3	Rgs10	3	51.8	32.9
4	Sbsn	1	87.8	90.6
5	Sbsn	2	44.6	79.4
6	Sbsn	3	50.9	97.5
7	Clcn5	1	89.3	85
8	Clcn5	2	88.6	91.6
9	Clcn5	3	58	77
10	Large1	1	61	62.9
11	Large1	2	107	126
12	Large1	3	99.2	123
13	Mtbp	1	53.2	69.1
14	Mtbp	2	43.9	55
15	Mtbp	3	80.2	58.3
16	Psap	1	69.2	108
17	Psap	2	72.9	58.3
18	Ssty1	1	75.4	73.8
19	Ssty1	2	105	101
20	Ssty1	3	54.4	40.6
21	Pdrg1	1	76.8	63.3
22	Pdrg1	2	66.8	55.2
23	Pdrg1	3	188 (active)	41.3
24	Cntnap5b	1	93.6	83.3
25	Cntnap5b	2	74.8	63.3
26	Cntnap5b	3	49.3	62.9
27	Ccr3	1	127 (active)	90.4
28	Ccr3	2	87.6	62.1
29	Ccr3	3	63.4	66.6
30	Seh1l	1	93.7	79.3
31	Seh1l	2	22	10.9
32	Seh1l	3	72.5	77.3
33	Gabrr2	1	91.2	65.5
34	Gabrr2	2	56.4	25.8
35	Gabrr2	3	74.3	41.1

Records above called active (2):
target gene	siRNA no.	GFP, % of control	viability (ATP), % of control
Pdrg1	3	188 (active)	41.3
Ccr3	1	127 (active)	90.4
